Assay results published in the supplement of paper PMC12819154, “High-throughput peptide-centric local stability assay extends protein–ligand identification to membrane proteins, tissues and bacteria” (Nature Structural & Molecular Biology, 2025).
This is one part of the list. Most entries show no effect beyond the scatter of the controls.

By UniProt entry, the sequences of proteins in these tests, tags left out. Where a name states a change or a piece, a line headed by the entry shows the natural chain unless it says otherwise.
UniProt Q80XI4: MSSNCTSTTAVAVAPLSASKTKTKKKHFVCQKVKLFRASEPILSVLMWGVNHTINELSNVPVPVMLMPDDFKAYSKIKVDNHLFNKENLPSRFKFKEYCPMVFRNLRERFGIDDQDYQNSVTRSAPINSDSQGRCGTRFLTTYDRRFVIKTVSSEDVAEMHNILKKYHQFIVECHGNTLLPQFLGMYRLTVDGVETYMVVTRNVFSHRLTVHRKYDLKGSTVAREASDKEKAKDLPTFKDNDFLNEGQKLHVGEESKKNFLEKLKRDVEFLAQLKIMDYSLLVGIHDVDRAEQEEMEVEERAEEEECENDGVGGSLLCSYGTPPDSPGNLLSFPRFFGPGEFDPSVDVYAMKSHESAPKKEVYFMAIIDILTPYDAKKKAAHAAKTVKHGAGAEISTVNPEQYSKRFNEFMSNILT
UniProt Q80WT5: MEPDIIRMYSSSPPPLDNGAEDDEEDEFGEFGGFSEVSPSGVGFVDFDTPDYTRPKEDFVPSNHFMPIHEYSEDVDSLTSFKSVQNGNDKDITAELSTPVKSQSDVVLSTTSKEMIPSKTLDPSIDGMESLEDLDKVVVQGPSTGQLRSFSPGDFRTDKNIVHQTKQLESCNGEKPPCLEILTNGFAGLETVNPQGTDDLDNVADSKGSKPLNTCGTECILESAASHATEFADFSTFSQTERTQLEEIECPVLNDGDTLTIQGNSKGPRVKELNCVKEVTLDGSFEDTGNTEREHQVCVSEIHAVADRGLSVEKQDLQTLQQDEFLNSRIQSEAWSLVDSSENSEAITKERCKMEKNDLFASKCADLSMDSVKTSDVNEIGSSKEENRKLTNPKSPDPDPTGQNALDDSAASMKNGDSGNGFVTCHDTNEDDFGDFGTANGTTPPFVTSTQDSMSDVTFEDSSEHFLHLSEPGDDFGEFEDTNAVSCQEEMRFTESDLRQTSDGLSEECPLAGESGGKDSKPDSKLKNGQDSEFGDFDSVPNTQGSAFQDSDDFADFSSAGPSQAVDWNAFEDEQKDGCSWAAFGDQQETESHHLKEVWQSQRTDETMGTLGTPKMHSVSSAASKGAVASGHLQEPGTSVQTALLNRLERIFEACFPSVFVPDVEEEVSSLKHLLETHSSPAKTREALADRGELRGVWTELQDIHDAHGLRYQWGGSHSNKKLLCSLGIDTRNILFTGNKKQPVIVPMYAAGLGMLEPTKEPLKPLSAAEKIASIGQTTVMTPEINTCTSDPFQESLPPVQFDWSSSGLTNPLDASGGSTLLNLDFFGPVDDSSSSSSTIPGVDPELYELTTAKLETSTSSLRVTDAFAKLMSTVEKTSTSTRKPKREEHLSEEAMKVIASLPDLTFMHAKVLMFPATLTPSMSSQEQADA
UniProt Q78PY7: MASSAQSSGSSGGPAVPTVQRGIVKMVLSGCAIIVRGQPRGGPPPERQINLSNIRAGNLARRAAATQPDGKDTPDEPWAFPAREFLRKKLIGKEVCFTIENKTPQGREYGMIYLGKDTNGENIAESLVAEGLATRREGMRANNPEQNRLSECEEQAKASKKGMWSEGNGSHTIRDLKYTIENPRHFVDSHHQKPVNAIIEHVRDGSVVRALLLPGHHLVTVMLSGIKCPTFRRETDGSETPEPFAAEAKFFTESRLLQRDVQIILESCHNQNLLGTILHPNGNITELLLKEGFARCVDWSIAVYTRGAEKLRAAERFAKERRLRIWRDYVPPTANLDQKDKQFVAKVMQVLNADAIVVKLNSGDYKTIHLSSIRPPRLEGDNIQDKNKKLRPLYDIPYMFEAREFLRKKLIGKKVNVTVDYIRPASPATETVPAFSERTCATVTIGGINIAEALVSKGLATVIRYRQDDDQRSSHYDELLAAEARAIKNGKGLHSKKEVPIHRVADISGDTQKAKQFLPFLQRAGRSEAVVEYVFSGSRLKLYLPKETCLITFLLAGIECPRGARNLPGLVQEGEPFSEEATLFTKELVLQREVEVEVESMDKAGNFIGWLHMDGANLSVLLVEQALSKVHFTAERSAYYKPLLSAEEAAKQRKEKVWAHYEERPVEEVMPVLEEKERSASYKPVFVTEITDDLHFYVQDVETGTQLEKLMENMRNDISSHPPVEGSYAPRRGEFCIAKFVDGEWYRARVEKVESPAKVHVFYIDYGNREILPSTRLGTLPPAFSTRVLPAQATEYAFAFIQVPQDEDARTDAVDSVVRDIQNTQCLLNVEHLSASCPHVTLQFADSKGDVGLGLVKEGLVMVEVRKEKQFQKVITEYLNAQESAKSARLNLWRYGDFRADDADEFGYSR
UniProt Q8BGH2: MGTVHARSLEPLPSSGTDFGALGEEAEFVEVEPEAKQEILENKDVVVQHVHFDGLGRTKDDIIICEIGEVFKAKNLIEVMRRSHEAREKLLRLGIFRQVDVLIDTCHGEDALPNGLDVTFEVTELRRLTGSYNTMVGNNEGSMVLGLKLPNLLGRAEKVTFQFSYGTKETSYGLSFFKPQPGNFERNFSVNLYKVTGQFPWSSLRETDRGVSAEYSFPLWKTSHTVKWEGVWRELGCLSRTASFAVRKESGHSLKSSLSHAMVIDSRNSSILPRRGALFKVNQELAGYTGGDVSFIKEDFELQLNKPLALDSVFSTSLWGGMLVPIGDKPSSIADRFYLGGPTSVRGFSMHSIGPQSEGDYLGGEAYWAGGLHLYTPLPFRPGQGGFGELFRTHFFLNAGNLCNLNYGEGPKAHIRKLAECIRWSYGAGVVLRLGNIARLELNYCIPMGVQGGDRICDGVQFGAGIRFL
UniProt Q6P6I6, whole entry: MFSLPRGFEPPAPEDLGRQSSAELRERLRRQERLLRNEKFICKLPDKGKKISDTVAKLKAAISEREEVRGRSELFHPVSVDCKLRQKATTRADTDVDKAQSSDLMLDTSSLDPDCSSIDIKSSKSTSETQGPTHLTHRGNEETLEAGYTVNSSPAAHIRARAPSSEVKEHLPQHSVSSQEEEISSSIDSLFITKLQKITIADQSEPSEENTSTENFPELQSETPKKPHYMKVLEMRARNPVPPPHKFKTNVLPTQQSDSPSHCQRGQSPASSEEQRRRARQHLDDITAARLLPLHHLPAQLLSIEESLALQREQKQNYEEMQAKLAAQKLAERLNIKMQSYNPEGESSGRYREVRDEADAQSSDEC
UniProt Q80YA7: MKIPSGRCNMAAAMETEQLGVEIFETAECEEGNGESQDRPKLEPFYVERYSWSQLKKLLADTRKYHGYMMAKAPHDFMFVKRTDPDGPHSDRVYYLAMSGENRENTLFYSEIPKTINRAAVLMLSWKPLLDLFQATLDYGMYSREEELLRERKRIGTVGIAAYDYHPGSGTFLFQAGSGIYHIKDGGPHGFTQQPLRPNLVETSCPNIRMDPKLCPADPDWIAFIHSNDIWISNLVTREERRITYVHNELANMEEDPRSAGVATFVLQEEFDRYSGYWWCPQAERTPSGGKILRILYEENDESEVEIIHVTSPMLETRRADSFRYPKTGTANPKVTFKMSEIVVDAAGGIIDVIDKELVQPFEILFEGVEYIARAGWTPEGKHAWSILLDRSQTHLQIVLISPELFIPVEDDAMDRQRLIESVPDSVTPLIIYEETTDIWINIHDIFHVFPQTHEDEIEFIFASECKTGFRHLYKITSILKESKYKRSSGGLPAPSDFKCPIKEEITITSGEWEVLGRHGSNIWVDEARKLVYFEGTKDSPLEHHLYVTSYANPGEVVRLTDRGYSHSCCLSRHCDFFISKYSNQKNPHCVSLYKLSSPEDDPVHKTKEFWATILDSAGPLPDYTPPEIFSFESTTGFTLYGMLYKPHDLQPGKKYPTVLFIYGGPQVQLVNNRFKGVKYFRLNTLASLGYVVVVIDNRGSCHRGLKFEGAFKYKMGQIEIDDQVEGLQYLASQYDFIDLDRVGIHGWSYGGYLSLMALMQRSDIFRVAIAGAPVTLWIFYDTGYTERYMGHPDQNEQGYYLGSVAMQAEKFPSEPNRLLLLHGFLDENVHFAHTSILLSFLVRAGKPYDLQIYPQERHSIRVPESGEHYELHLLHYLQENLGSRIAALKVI
UniProt Q80XQ2: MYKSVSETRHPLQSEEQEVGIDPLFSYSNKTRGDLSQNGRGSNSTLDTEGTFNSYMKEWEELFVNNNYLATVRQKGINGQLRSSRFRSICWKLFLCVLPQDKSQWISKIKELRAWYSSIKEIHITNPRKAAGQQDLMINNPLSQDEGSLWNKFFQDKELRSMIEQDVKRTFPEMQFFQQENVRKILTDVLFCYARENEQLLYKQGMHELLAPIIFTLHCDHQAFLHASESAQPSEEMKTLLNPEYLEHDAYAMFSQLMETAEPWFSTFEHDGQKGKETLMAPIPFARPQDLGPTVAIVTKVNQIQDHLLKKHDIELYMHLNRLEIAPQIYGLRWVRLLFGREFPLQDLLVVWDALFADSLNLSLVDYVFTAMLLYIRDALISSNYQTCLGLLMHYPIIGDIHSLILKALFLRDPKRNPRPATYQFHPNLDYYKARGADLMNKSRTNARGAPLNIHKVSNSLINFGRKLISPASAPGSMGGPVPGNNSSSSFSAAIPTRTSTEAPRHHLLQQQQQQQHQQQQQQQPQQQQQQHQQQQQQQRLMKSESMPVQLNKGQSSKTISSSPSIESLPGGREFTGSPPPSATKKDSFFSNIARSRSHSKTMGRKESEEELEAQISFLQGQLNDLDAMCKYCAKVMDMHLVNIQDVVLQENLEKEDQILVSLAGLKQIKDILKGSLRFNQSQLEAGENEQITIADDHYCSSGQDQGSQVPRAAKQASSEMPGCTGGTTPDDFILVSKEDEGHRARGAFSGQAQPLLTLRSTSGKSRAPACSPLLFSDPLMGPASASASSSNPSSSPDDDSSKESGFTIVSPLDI
UniProt Q80XC3: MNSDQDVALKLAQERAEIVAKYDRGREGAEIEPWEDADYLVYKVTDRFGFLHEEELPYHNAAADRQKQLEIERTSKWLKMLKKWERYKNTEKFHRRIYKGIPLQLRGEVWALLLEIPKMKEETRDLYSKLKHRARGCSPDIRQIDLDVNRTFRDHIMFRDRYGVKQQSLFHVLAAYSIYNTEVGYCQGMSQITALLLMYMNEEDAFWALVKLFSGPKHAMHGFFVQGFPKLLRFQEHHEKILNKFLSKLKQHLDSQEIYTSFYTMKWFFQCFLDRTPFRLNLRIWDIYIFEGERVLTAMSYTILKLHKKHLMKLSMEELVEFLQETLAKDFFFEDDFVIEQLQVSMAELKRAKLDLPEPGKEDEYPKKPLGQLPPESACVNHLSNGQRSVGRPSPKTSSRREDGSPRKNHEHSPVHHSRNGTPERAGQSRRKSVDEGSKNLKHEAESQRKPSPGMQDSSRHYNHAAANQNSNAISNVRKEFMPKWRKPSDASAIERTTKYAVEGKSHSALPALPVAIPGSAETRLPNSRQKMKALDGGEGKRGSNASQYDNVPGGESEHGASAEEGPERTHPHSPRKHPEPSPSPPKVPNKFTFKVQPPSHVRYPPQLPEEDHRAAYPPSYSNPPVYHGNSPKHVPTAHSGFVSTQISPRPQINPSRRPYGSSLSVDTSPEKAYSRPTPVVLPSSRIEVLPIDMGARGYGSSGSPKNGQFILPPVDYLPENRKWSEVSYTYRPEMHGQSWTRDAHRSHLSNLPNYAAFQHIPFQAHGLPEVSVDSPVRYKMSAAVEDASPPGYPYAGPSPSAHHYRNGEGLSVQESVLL
UniProt Q80VJ2: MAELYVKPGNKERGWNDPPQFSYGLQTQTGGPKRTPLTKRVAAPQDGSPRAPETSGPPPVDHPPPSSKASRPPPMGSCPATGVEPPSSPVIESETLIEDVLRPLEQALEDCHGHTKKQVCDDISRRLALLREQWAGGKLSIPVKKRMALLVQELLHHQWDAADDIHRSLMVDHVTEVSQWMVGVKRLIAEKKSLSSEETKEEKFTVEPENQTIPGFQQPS
UniProt Q6PAM1: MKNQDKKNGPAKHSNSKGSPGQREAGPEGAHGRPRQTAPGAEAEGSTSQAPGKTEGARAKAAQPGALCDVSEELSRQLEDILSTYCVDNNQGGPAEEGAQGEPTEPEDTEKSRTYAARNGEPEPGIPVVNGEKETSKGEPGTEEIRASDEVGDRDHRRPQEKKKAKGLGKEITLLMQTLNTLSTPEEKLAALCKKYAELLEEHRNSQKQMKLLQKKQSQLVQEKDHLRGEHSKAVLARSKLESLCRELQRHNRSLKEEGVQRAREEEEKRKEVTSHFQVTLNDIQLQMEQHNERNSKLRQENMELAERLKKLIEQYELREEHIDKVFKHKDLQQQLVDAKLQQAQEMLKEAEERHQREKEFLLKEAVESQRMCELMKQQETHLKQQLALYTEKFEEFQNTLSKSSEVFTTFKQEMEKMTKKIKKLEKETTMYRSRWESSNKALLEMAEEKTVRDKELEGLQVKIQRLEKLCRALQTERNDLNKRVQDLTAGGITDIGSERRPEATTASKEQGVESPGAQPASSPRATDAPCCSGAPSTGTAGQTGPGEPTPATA
UniProt Q6NXN1: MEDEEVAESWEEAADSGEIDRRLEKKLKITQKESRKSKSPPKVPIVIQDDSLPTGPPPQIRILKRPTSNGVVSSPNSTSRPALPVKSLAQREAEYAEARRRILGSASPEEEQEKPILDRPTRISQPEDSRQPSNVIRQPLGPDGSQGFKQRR

Compound: CN[C@@H]1C[C@H]2O[C@@](C)([C@@H]1OC)n1c3ccccc3c3c4c(c5c6ccccc6n2c5c31)C(=O)NC4 [staurosporine]
Experiment: log2 fold change of pooled soluble protein (PISA), ligand vs vehicle (log2 ratio); higher = more thermally stabilized
Conditions: ligand concentration: 20 uM; assay format: PISA pool 52.9/55.5/58.6 C

Target | log2 fold change of pooled soluble protein
UniProt Q80XI4 | -0.0567
UniProt Q7TMW6 | -0.121
UniProt Q6PCP5 | 0.152
UniProt Q80WT5 | 0.0149
UniProt Q78PY7 | -0.119
UniProt Q8BG15 | 0.0336
UniProt Q811I0 | 0.0155
UniProt Q7TNG8 | 0.0655
UniProt Q8BGH2 | -0.168
UniProt Q6ZWV7 | -0.298
UniProt Q7TQD2 | 0.0861
UniProt Q6PEV3 | -0.0973
UniProt Q6P6I6 | 0.179
UniProt Q80U49 | -0.151
UniProt Q8BG94 | -0.0223
UniProt Q6QD59 | -0.0464
UniProt Q80VQ0 | 0.0929
UniProt Q6PIP5 | 0.108

A portion from further up, for reference:
Target | log2 fold change of pooled soluble protein
UniProt Q6PCP5 | 0.152
UniProt Q80WT5 | 0.0149

(continued)

Target | log2 fold change of pooled soluble protein
UniProt Q8BGB5 | -0.103
UniProt Q6ZQ58 | -0.219
UniProt Q7TN29 | 0.136
UniProt Q80YA7 | -0.102
UniProt Q7TPV4 | -0.0166
UniProt Q810U5 | 0.000563
UniProt Q80W93 | 0.183
UniProt Q6PE01 | 0.129
UniProt Q80XQ2 | 0.00771
UniProt Q7TSI3 | 0.00672
UniProt Q8BFP9 | 0.0706
UniProt Q80XC3 | -0.0189
UniProt Q811L6 | 0.0541
UniProt Q6Y685 | 0.0405
UniProt Q80VJ2 | -0.0419
UniProt Q6PAM1 | 0.0513
UniProt Q6PB66 | -0.0904
UniProt Q6NXN1 | -0.0736
